Laboratory results as given in PubChem BioAssay AID504834 (National Center for Advancing Translational Sciences (NCATS), 2011).
About 22,000 (6.9%) of roughly 320,000 compounds were called active. Inconclusive means that the source gave no clear call. Such entries were picked first, then a sample of the others. The call rests on the fitted dose curve; in most records, active means well fitted inhibition curve with a large enough effect; inconclusive means small, poorly fitted or top-dose-only effect, or another doubt; inactive means no such curve, though single readings can be large or run the other way. Potencies beside an inconclusive call are fits to weak or partial responses and may not hold up. Where a SMILES comes first, the peptide text is derived from it. [ ]: non-standard residue; d: D form. ξ: configuration not given here. ξV = CC(C)C(N)C(=O)O

Assay: Primary qHTS for delayed death inhibitors of the malarial parasite plastid, 96 hour incubation
Details: P. falciparum luciferase reporter growth; series mostly up to 28.7 µM; activity change, negative = inhibition: at the top concentration
In short: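 Compounds incubated with erythrocytes infected by luciferase-expressing P. falciparum (2% hematocrit, 0.05% parasitemia final) for 96 hours, 37 C in 5% CO2. Growth inhibition scored as decreased luciferase luminescence.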
On the % scale 0 is the no-effect control and ±100 the full control effect; potency means the concentration at half of the fitted maximal effect.

Row | Structure (SMILES) | activity change, negative = inhibition | Potency
1 | COC(=O)c1ccccc1-c1ccc(/C=N/NC(N)=O)o1 | inactive: 30.5% | –
2 | CCC(C)N1C(=O)NC(=O)C2(Cc3c(ccc4ccccc34)N(C)C2)C1=O (centres undefined) | – | inconclusive: 18.5 µM [inhibitor, single point]
3 | COc1ccc(C(=O)NCC(=O)OCC(=O)c2ccc3c(c2)NC(=O)CO3)cc1 | inactive: 11.6% | –
4 | CCOc1cc(C(=O)NC(=S)Nc2ccc(Cl)c(C(=O)O)c2)cc(OCC)c1OCC | inactive: 9.57% | –
5 | COc1cc(NC(=O)CSc2nc3ccccc3cc2Cc2ccccc2)cc(OC)c1 | – | inconclusive: 0.131 µM [inhibitor, full curve, poor fit]
6 | CN1CCN(CC(O)COc2ccc(C34CC5CC(CC(C5)C3)C4)cc2)CC1 (centres undefined) | – | inconclusive: 11.7 µM [inhibitor, single point]
7 | CC(C)CCN(C(=O)Cc1ccccc1F)c1c(N)n(Cc2ccccc2)c(=O)[nH]c1=O | – | inconclusive: 0.262 µM [inhibitor, full curve, poor fit]
8 | CCc1ccc(C(=O)C(C)CN2CCCCC2)cc1 (centres undefined) | – | active: 1.51 µM
9 | CC(=O)NC(C(=O)NCC(N)=O)C(C)C (centres undefined) (Ac-[ξV]-Gly-NH2) | – | inconclusive: 4.15 µM [inhibitor, single point]
10 | CCNC(=O)c1ccc(C2SCC(=O)N2Cc2ccco2)cc1 (centres undefined) | – | inconclusive: 16.5 µM [inhibitor, partial curve, poor fit]
11 | CCOC(=O)C1CCN(c2ncnc3c2[nH]c2cccc(OC)c23)CC1 | – | inconclusive: 13.1 µM [inhibitor, partial curve, poor fit]
12 | CC(=O)N1CCN(CC(=O)Nc2sccc2C#N)CC1 | – | inconclusive: 18.5 µM [inhibitor, single point]
13 | CN(C)/C=C(\C=N\OCc1ccc(Cl)cc1Cl)C(=O)Nc1ccc(Cl)c(Cl)c1 | – | inconclusive: 18.5 µM [inhibitor, single point]
14 | CCOC(=O)C1CCN(S(=O)(=O)c2ccc(OC)c(C(=O)N3CCCCCC3)c2)CC1 | inactive: -5.06% | –
15 | CC/C(=N\NC(=O)c1cccnc1)c1ccc2c(c1)OCCO2 | – | active: 0.928 µM
16 | Cn1cnc(S(=O)(=O)Nc2ccc(OC(F)(F)F)cc2)c1 | – | inconclusive: 0.104 µM [inhibitor, full curve, poor fit]
17 | COc1ccccc1C(C)Nc1ccc(S(=O)(=O)N2CCN(C)CC2)cc1[N+](=O)[O-] (centres undefined) | – | active: 16.5 µM
18 | Cn1nc(CC(=O)NCc2cccc3ccccc23)c2ccccc2c1=O | – | inconclusive: 8.28 µM [inhibitor, partial curve]
19 | Cc1ccc2cc(C=O)c(N(C)C)nc2c1 | – | inconclusive: 13.1 µM [inhibitor, single point]

2 records picked at random from the list so far, as already listed:
Row | Structure (SMILES) | activity change, negative = inhibition | Potency
19 | Cc1ccc2cc(C=O)c(N(C)C)nc2c1 | – | inconclusive: 13.1 µM [inhibitor, single point]
14 | CCOC(=O)C1CCN(S(=O)(=O)c2ccc(OC)c(C(=O)N3CCCCCC3)c2)CC1 | inactive: -5.06% | –
